Experimental data published in publication doi:10.1101/2024.09.13.612941.
For at least one entry, the source does not settle the construct or the ends of the probe. At least one verdict was read from the data and is not stated in words by the source. Tags and fusion partners may be left off the protein sequences shown.

Tested on: T1, SMARCAD1 V974A (human)
T1 sequence (looked up): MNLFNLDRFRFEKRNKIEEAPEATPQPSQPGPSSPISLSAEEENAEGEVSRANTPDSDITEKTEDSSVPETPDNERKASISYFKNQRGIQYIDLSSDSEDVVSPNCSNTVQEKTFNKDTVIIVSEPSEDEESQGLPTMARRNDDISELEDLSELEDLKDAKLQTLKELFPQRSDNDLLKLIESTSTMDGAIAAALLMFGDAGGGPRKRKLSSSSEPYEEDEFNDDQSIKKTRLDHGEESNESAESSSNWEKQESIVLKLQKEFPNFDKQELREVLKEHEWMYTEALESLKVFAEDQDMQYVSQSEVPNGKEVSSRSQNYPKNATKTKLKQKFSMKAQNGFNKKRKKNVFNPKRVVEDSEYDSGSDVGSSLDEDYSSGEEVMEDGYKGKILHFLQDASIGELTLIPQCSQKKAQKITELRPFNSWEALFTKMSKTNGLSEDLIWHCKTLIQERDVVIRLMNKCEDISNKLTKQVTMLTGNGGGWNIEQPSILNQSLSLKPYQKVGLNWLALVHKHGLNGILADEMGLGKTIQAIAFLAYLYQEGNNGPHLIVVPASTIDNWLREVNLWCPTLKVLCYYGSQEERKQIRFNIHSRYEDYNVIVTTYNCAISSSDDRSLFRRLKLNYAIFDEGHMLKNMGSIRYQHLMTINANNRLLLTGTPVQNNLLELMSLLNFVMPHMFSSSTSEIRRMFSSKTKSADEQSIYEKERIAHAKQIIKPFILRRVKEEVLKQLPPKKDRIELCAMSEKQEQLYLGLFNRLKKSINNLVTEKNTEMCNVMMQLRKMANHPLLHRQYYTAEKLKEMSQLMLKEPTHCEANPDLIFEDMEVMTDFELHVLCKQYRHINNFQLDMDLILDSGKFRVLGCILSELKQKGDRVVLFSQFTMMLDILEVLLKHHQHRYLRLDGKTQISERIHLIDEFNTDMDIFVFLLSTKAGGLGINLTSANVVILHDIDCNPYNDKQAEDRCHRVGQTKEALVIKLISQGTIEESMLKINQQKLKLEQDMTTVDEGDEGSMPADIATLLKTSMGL
Test: EMSA
Conditions: 1 uM protein, 50 nM substrate; residues 1-1028

## GCAGCTGGCACGACAGGTATGAATC (double strand) [dsDNAshort]
  binding result: binds
